{"source": "PubChem BioAssay AID588499", "about": "(NMMLSC, 2011)", "note": "Among all 360,000 compounds or so, about 610 (0.17%) were called active. This list was built around the results that the source calls inconclusive (neither active nor inactive); the mix of calls is not that of the screen. Rule as the data show it: active = inhibition above about 30%; inconclusive = no clear call, values can overlap the other calls; inactive = below that."}
{"tested_on": "Botulinum neurotoxin type A light chain protease (Clostridium botulinum A str. ATCC 3502)", "assay": "blockers of BoNT/A LC substrate cleavage – biochemical, flow cytometry, MLPCN library, primary screen (AID 588499); also: plate controls were buffer without enzyme for full effect and enzyme alone for no effect", "details": "multiplex microsphere protease substrate cleavage, at 10 µM, stronger effect = higher value"}
{"smiles": "CNC(=O)c1cc(C)c(-c2ccccc2)s1", "inhibition": "inconclusive: 11.4%"}
{"smiles": "COc1cc(N)c(Cl)cc1C(=O)OCC(=O)Nc1ccc(N2CCOCC2)cc1", "inhibition": "inactive: 0.2%"}
{"smiles": "CCC(C)[C@H](NC(=O)NC1CC1)C(=O)O", "note": "(some centres undefined)", "inhibition": "inconclusive: 1.6%"}
{"smiles": "Cc1cc2ncn(/N=C/c3ccc([N+](=O)[O-])s3)c2cc1C", "inhibition": "active: 43.5%"}
{"smiles": "Cc1ccc(NS(=O)(=O)c2ccc(-n3cccn3)cc2)c(Cl)c1", "inhibition": "inactive: -0.1%"}
{"smiles": "O=S(=O)(NC1C2CC3CC(C2)CC1C3)c1ccc(F)cc1", "note": "(centres undefined)", "inhibition": "inconclusive: 12.1%"}
{"smiles": "O=c1c2ccccc2c(-c2ccccc2)nn1Cc1ccc(Cl)cc1", "inhibition": "inconclusive: -0.4%"}
{"smiles": "CC(NC(=O)CN1CCc2ccccc21)c1ccccc1", "note": "(centres undefined)", "inhibition": "inconclusive: 5%"}
{"smiles": "CC(/C=N/NC(=O)Cc1cccs1)=C\\c1ccco1", "inhibition": "inconclusive: 0.3%"}
{"smiles": "CCN(CC)Cc1c(C(=O)N/N=C/c2ccccn2)nnn1-c1nonc1N", "inhibition": "inactive: -0.1%"}
{"smiles": "COc1ccccc1CN(Cc1nc2ccccc2c(=O)[nH]1)C(=O)Nc1ccccc1C", "inhibition": "inconclusive: -3.8%"}
{"smiles": "CCOC(=O)NC1(C(F)(F)F)NC(=O)N(Cc2ccco2)C1=O", "note": "(centres undefined)", "inhibition": "inconclusive: -0.6%"}
{"smiles": "CN(C)CCNC(=O)C1CCN(S(=O)(=O)c2ccc3ccccc3c2)CC1", "inhibition": "inactive: -1.7%"}
{"smiles": "COc1ccc(NC(=O)c2ccc(C(=O)c3cc(OC)ccc3OC)cc2)cc1", "inhibition": "inactive: 5.6%"}
{"smiles": "CCCC(=O)Nc1ccc(C(=O)NNC(=O)c2ccco2)cc1", "inhibition": "inconclusive: 1.1%"}
{"smiles": "CCCNC(=O)c1cc(-c2ccc(OC)cc2)on1", "inhibition": "inactive: -0.2%"}
{"smiles": "CSCCC(N=C(NS(=O)(=O)c1ccc(C)cc1)c1ccccc1)C(=O)O", "note": "(centres undefined)", "inhibition": "inactive: -0.9%"}
{"smiles": "CC1(C(=O)Nc2cccc3ncccc23)CCN1C(=O)Cc1ccc(-c2ccccc2)cc1", "note": "(centres undefined)", "inhibition": "inactive: 0.2%"}
{"smiles": "Cc1ccc(NC(=S)N2CCCCCC2)cc1", "inhibition": "inconclusive: 19.4%"}
{"smiles": "CSCCC(NC(=O)c1ccccc1Br)C(=O)Nc1ccc(C)cc1", "note": "(centres undefined)", "inhibition": "inactive: -1.3%"}
{"smiles": "COC(=O)c1cc(NC(=O)C2CC2)cc(C(=O)OC)c1", "inhibition": "inactive: 0.7%"}
{"smiles": "COc1ccccc1N1CCN(C(=O)CNC(=O)c2cn(-c3ccccc3OC)c(=O)c3ccccc23)CC1", "inhibition": "inactive: -1.7%"}
{"smiles": "Cc1ccccc1-n1nc(C)c2cc(C(=O)N3CCOCC3)sc21", "inhibition": "inconclusive: 0.7%"}
{"smiles": "N#Cc1nc(COc2ccc(Br)cc2)oc1NCCN1CCOCC1", "inhibition": "inactive: -2.1%"}
{"smiles": "CCN(CC)C(=O)Cn1cc(S(=O)(=O)CC(=O)Nc2ccc(F)cc2)c2ccccc21", "inhibition": "inconclusive: 1.7%"}
{"smiles": "O=C1NC[C@H](CCCCN2C[C@H](Cc3ccc(O)cc3)N(CCc3ccccc3)C(=O)C2=O)N(CCC2CCCCC2)C1=O", "inhibition": "inactive: -0.2%"}
{"smiles": "CCOc1ccc(CCNc2nc3c(c(=O)n(C)c(=O)n3C)n2CC)cc1OCC", "inhibition": "inconclusive: -2.2%"}
{"smiles": "CC(=O)Nc1ccc(N2CCN(c3ccc(C(F)(F)F)cn3)CC2)nc1", "inhibition": "inconclusive: -10.1%"}
{"smiles": "Cc1nc(N2CCOCC2)c(C#N)c2c1COC(C)(C)C2", "inhibition": "inactive: -2%"}
{"smiles": "COCc1nnc(NS(=O)(=O)c2ccc([N+](=O)[O-])cc2)s1", "inhibition": "inconclusive: 2.1%"}
{"smiles": "N#Cc1ncc(Cl)c2ccccc12", "inhibition": "inconclusive: -50.4%"}
{"smiles": "CCC(C)(C(=O)NC1CCCCC1)N(CC1CCCO1)C(=O)c1ccccn1", "note": "(centres undefined)", "inhibition": "inactive: -4.4%"}
{"smiles": "O=C(CC1SCCNC1=O)Nc1cccc([N+](=O)[O-])c1", "note": "(centres undefined)", "inhibition": "inconclusive: -9%"}
{"smiles": "O=C(Nc1cccc(Cl)c1)c1cc(F)cc2c1OCOC2", "inhibition": "inconclusive: 28.1%"}
{"smiles": "COc1cc2nc(CC(C)C)n(NC(=O)c3ccccc3)c(=O)c2cc1OC", "inhibition": "inconclusive: 0.4%"}
{"smiles": "CCOC(=O)N1CCN(S(=O)(=O)c2c(C(=O)N3CCCCC3)c(C)n(C)c2C)CC1", "inhibition": "inactive: -1.5%"}
{"smiles": "COc1ccccc1C(=O)Nc1sc2c(c1C#N)CCC2", "inhibition": "inactive: 1.8%"}
{"smiles": "O=C(O)CC1(CC(=O)NCc2csc(-c3cccs3)n2)CCCCC1", "inhibition": "inconclusive: -13.5%"}
{"smiles": "Cc1ccccc1NC(=O)CSc1nnc2ccc(-c3cccnc3)nn12", "inhibition": "inconclusive: -244%"}
{"smiles": "COc1ccc(CCNC(=O)c2cc(C3CC3)nc3c2cnn3C(C)C)cc1OC", "inhibition": "inconclusive: 22.6%"}
{"smiles": "COc1ccccc1N(C)S(=O)(=O)c1ccc(C(=O)NNC(=O)c2ccccc2O)cc1", "inhibition": "inactive: -3%"}
{"smiles": "FC(F)(F)c1nnc(N2CCN(c3ccc(Cl)cc3)CC2)s1", "inhibition": "inconclusive: 18%"}
{"smiles": "COc1ccc(C(=O)NN2CCCCC2)cc1OC", "inhibition": "inconclusive: 2.9%"}
{"smiles": "Cc1cccc(NC(=O)CC2Nc3cccc4cccc(c34)NC2=O)c1", "note": "(centres undefined)", "inhibition": "inconclusive: -3.4%"}
{"smiles": "CC(=O)Nc1ccc(NC(=O)CSCc2cnn(-c3ccccc3)c2-n2cccc2)cc1", "inhibition": "inconclusive: 1%"}
{"smiles": "CCCn1c(N)c(N(CCOC)C(=O)c2ccc(N(C)S(=O)(=O)c3ccc(C)cc3)cc2)c(=O)[nH]c1=O", "inhibition": "inconclusive: -1.3%"}
{"smiles": "Cn1nc(-c2ccc(N3CCCCC3)c(NC(=O)c3ccco3)c2)c2ccccc2c1=O", "inhibition": "inconclusive: 2.3%"}
{"smiles": "O=C(c1coc(=O)c(Br)c1)N1CCC(C(O)(c2ccccc2)c2ccccc2)CC1", "inhibition": "inactive: -0.3%"}
{"smiles": "O=C(Nc1sc2c(c1C(=O)c1ccc(Cl)cc1)CCCC2)c1cccnc1", "inhibition": "inconclusive: 22.6%"}
{"smiles": "COCC(=O)Nc1nc2n(n1)C(c1ccc(OC)cc1)CC(c1ccc(OC)cc1)N2", "note": "(centres undefined)", "inhibition": "inconclusive: 7.9%"}
{"smiles": "COCCNC(=O)C1CCCN(S(=O)(=O)c2ccc3c(c2)CC(C)N3C(=O)C2CC2)C1", "note": "(centres undefined)", "inhibition": "inactive: -0.7%"}
{"smiles": "Cc1cccc(C)c1NC(=O)CSc1nc2ccccc2c(=O)[nH]1", "inhibition": "inconclusive: -1.7%"}
{"smiles": "CCNc1ccc(Br)cc(C(=O)/C=C/c2ccc(Cl)cc2Cl)c1=O", "inhibition": "inconclusive: 51.7%"}
{"smiles": "O=c1[nH]c(=O)n(-c2cccc3ccccc23)c(O)c1/C=N/N1CCCCCC1", "inhibition": "inconclusive: 22.1%"}
{"smiles": "Cc1ccc(-n2c(-c3cccnc3)n[nH]c2=S)c(C)c1", "inhibition": "inconclusive: -261%"}
{"smiles": "Cc1ccc(NC(=O)CC2SCCNC2=O)cc1Cl", "note": "(centres undefined)", "inhibition": "inconclusive: -3.2%"}
{"smiles": "O=C(NCc1cccc(Cl)c1)c1cccnc1", "inhibition": "inconclusive: -8.2%"}
{"smiles": "O=S(=O)(c1ccc(Cl)cc1)N1CCCN(c2nc3ccc(Cl)cc3s2)CC1", "inhibition": "inconclusive: 1.6%"}
{"smiles": "Cc1ccc(C(=O)NN2C(=O)C3C4C=CC([C@@H]3C2=O)C42CC2)cc1", "note": "(some centres undefined)", "inhibition": "inconclusive: -18.6%"}
{"smiles": "c1ccc(Sc2ncccn2)nc1", "inhibition": "inconclusive: -46.2%"}
{"smiles": "CCC1=C(C(=O)OC)C(c2cc(OC)ccc2OC)C(C#N)=C(N)O1", "note": "(centres undefined)", "inhibition": "inconclusive: 2.2%"}
{"smiles": "CCOC(=O)c1sc(C(=O)OCC)c(OCCO)c1OCCO", "inhibition": "inconclusive: -4.2%"}
{"smiles": "O=C(Nc1cccnc1)Nc1ccc(F)c(Cl)c1", "inhibition": "inconclusive: 0%"}
{"smiles": "Nc1ccc(C(=O)Nc2nc3ccccc3s2)cc1", "inhibition": "inactive: 0.4%"}
{"smiles": "Cc1ccc(-c2oc3ncnc(N)c3c2-c2ccc(C)cc2)cc1", "inhibition": "inconclusive: 24.7%"}
{"smiles": "Cc1cc(Cl)ccc1OCC(=O)OC(C)C(=O)N(C)C", "note": "(centres undefined)", "inhibition": "inactive: -1.1%"}
{"smiles": "Cc1ccc(C(=O)NC(Cc2c[nH]c3ccccc23)C(=O)O)cc1", "note": "(centres undefined)", "inhibition": "inconclusive: 2.5%"}
{"smiles": "O=c1[nH]c2c(=O)[nH]cnc2nc1-c1ccccc1", "inhibition": "inconclusive: 9.8%"}
{"smiles": "Cc1ccc(S(=O)(=O)N2CCCC2c2cccnc2)cc1", "note": "(centres undefined)", "inhibition": "inconclusive: -1.9%"}
{"smiles": "O=[N+]([O-])c1ccc(/C=C/C2=NN(c3ccccc3)C(c3ccco3)C2)cc1", "note": "(centres undefined)", "inhibition": "active: 56.7%"}
{"smiles": "CC(=O)Nc1ccc(-c2cc(C(=O)O)c3ccc(C)cc3n2)cc1", "inhibition": "inconclusive: 18%"}
{"smiles": "COCCN(C(=O)COC(=O)CSc1ccc(Cl)cc1)c1c(N)n(Cc2ccccc2)c(=O)[nH]c1=O", "inhibition": "inconclusive: -26.4%"}
{"smiles": "CCN(CC)c1ccc(C(=C2C=CC(=[N+](CC)CC)C=C2)c2ccccc2)cc1", "inhibition": "inconclusive: 1%"}
{"smiles": "Cc1cccc(NC(=S)N(C)C)c1C", "inhibition": "inconclusive: -3.3%"}
{"smiles": "CCN(CC)C(=O)[C@H]1C[C@H](CC(=O)NC(C)(C)C)C(=O)N2CCc3c([nH]c4cc(CCC(=O)N(C)C)ccc34)[C@]12C", "inhibition": "inactive: -0.2%"}
{"smiles": "CC(=O)Nc1ccc(NC(=O)COC(=O)c2cc(S(=O)(=O)N(C)C)ccc2N2CCCC2)cc1", "inhibition": "inconclusive: 0.8%"}
{"smiles": "Cc1ccc(-n2ncc(C(=O)NCc3ccc4c(c3)OCO4)c2NC(=O)c2ccco2)cc1C", "inhibition": "inconclusive: 2.5%"}
{"smiles": "O=C(O)CCCCCNC(=O)c1ccncc1", "inhibition": "inconclusive: 1.5%"}
{"smiles": "COC(=O)Nc1ccc2c(c1)N(C(=O)CCN1CCN3CCCC3C1)c1ccccc1S2", "note": "(centres undefined)", "inhibition": "inconclusive: -1.6%"}
{"smiles": "O=C(CCC(=O)N1CCN(S(=O)(=O)c2ccccc2)CC1)c1cccs1", "inhibition": "inconclusive: 4.8%"}
{"smiles": "Cc1c(N2C(=O)C3C4C=CC(C5CC45)C3C2=O)c(=O)n(-c2ccccc2)n1C", "note": "(centres undefined)", "inhibition": "inconclusive: 14.2%"}
{"smiles": "CSc1ccc(C(=O)C2CCCN(C(=O)Cc3nonc3C)C2)cc1", "note": "(centres undefined)", "inhibition": "inactive: 0.5%"}
{"smiles": "CCc1nc2c(OCCC3CCCCC3)cccn2c1N(C)C(=O)c1cccs1", "inhibition": "inactive: 0%"}
{"smiles": "Cn1cccc1Cc1nnc(SCC(=O)NCc2ccco2)n1-c1ccc(F)cc1", "inhibition": "inconclusive: 4.8%"}
{"smiles": "O=C(Cn1ccc2ccccc2c1=O)NCC(=O)N1CCCCC1", "inhibition": "inactive: -1.7%"}
{"smiles": "CN1/C(=C\\C(=S)NC(=O)c2cccc(Br)c2)C(C)(C)c2ccccc21", "inhibition": "active: 41.5%"}
{"smiles": "Cc1nn(-c2ccc(N3CCOCC3)nn2)c(C)c1CCC(=O)N1CCN(C)CC1", "inhibition": "inconclusive: 13.4%"}
{"smiles": "COc1ccc(C(CNC(=O)c2cc3ccccc3cc2OC)N2CCCC2)cc1", "note": "(centres undefined)", "inhibition": "inconclusive: -0.9%"}
{"smiles": "Cc1noc(C)c1COc1ccc(C(=O)NCCc2ccc(F)cc2)cc1", "inhibition": "inactive: -0.1%"}
